2 substances from article PMC5666619 can be followed below.

Protein sequences, listed by entry. Tags and fused reporters are not part of them. Lines headed by an entry give the natural chain unless they say otherwise; changes in a name come on top.
UniProt A0A0B4KEC4: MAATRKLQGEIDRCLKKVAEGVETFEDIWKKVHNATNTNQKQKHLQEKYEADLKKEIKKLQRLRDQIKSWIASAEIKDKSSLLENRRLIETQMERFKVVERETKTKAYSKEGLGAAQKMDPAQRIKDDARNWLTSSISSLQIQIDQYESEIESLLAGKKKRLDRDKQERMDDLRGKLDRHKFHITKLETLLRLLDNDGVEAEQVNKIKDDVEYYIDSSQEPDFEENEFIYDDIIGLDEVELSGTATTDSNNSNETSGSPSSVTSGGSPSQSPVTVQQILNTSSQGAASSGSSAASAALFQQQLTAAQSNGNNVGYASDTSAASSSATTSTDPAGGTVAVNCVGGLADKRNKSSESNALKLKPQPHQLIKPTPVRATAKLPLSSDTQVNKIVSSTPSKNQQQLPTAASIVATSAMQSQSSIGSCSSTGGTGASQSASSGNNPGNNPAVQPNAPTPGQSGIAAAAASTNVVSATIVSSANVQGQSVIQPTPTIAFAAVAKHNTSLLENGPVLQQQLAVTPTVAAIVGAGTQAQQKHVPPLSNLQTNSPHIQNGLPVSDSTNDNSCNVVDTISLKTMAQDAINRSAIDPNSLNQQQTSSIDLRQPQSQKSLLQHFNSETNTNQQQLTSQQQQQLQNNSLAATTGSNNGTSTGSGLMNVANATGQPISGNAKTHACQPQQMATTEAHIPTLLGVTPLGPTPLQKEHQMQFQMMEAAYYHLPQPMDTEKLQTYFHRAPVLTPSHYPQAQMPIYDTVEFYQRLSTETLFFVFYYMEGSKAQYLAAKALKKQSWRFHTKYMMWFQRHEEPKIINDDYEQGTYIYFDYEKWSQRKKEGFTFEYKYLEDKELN

In this test the target is T1, GFP-Aub (Aubergine) (Drosophila) (UniProt O76922).
T1 sequence: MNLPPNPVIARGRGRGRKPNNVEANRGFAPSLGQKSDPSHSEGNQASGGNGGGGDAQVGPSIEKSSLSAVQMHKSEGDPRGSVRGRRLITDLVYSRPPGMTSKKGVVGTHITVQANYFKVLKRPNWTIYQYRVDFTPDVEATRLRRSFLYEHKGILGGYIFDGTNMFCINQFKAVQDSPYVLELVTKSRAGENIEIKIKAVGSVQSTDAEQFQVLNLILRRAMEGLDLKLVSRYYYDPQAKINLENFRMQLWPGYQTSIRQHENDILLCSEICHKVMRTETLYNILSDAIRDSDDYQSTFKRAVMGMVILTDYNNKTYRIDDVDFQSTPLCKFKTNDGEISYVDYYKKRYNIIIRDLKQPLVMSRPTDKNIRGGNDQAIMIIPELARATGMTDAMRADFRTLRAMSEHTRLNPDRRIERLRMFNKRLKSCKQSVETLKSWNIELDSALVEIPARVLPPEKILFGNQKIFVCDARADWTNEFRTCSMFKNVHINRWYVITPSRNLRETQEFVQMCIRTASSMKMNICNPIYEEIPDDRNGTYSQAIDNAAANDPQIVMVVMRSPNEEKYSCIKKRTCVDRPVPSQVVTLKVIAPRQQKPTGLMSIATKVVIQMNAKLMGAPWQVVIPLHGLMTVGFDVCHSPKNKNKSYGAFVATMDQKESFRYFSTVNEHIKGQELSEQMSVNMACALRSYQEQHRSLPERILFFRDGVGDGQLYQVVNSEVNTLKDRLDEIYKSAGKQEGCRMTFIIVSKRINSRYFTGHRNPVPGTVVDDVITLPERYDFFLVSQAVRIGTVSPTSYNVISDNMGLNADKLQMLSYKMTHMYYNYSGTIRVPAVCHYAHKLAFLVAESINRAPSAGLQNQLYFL
Put plainly: co-IP; ovarian extracts (60 ovaries, 3-day-old females) in DXB-150 (25 mM Hepes-KOH pH 6.8, 250 mM sucrose, 1 mM MgCl2, 1 mM DTT, 150 mM NaCl, 0.1% Triton X-100) with RNase inhibitor or RNase A; IP with mouse anti-GFP (3E6) on Dynabeads Protein G, 3 h at 4°C; Western blot; wild-type extract as mock IP.

These are yes or no findings as the source states them, for the method shown. Binding seen in cells or lysates may run through a third protein. A result given as binding can be weak or reduced; the word gives no strength. Tags and fused reporters may be left off the sequences shown.

As for “CCR4 (Drosophila (endogenous in ovaries)) (enzyme)”, the binding entry is “binds”.

As for NOT3 (from UniProt A0A0B4KEC4), the binding result is recorded as “binds”.
